Laboratory results reported in patent EP0891770B1, “Killer T cell activator and use thereof” (Nitto Denko Corporation, priority 1997, dated 1999).
At least one peptide structure holds a part that was inferred or is arguable (an end, a ring closure or a residue). Where a SMILES comes first, the peptide text is derived from it.

System: CD8-positive cells in cervical lymph node
Test: Variation in total number of lymphocytes and number of CD8-positive cells in cervical lymph node after application of antigenic peptide to tape-stripped earlobe
Format: in vivo, B6 mouse
Settings: for Number of CD8-positive cells (%): share of total cervical lymph node cells
[1] = peptide applied 12 hours after tape stripping, cervical lymph node
[2] = peptide applied 12 hours after tape stripping, cervical lymph node removed 1 week after application
[3] = peptide applied 12 hours after tape stripping
[4] = peptide applied 24 hours after tape stripping, cervical lymph node
[5] = peptide applied 24 hours after tape stripping, cervical lymph node removed 1 week after application
[6] = peptide applied 24 hours after tape stripping
[7] = peptide applied 48 hours after tape stripping, cervical lymph node
[8] = peptide applied 48 hours after tape stripping, cervical lymph node removed 1 week after application
[9] = peptide applied 48 hours after tape stripping
[10] = time after stripping: untreated, cervical lymph node removed 1 week after application
[11] = time after stripping: untreated, peptide in 70% ethanol applied to earlobe, cervical lymph node removed 1 week after application
[12] = time after stripping: untreated

| Compound | Number of CD8-positive cells (x10^7) [1] | Total number of cells (x10^7) [2] | Number of CD8-positive cells (%) [3] | Number of CD8-positive cells (x10^7) [4] | Total number of cells (x10^7) [5] | Number of CD8-positive cells (%) [6] | Number of CD8-positive cells (x10^7) [7] | Total number of cells (x10^7) [8] | Number of CD8-positive cells (%) [9] | Number of CD8-positive cells (x10^7) [10] | Total number of cells (x10^7) [11] | Number of CD8-positive cells (%) [12] |
| --- | --- | --- | --- | --- | --- | --- | --- | --- | --- | --- | --- | --- |
| CC[C@H](C)[C@H](NC(=O)[C@H](CO)NC(=O)[C@@H](N)CO)C(=O)N[C@@H](CCC(=O)O)C(=O)N[C@@H](Cc1ccccc1)C(=O)N[C@@H](C)C(=O)N[C@@H](CCCNC(=N)N)C(=O)N[C@@H](CC(C)C)C(=O)O [HSV gp B, Ser Ser Ile Glu Phe Ala Arg Leu] (H-SSIEFARL-OH) | 1.45 x10^7 | 2.93 x10^7 | (49.5) % | 0.86 x10^7 | 1.86 x10^7 | (46.2) % | 0.31 x10^7 | 0.96 x10^7 | (32.3) % | 0.25 x10^7 | 0.82 x10^7 | (20.5) % |
| CC[C@H](C)[C@H](NC(=O)[C@@H](NC(=O)[C@@H](N)CO)[C@@H](C)CC)C(=O)N[C@@H](CC(N)=O)C(=O)N[C@@H](Cc1ccccc1)C(=O)N[C@@H](CCC(=O)O)C(=O)N[C@@H](CCCCN)C(=O)N[C@@H](CC(C)C)C(=O)O [Ovalbumin, Ser Ile Ile Asn Phe Glu Lys Leu] | 0.53 x10^7 | 1.57 x10^7 | (33.8) % | 0.42 x10^7 | 1.28 x10^7 | (32.8) % | 0.26 x10^7 | 1.21 x10^7 | (21.5) % | 0.13 x10^7 | 0.65 x10^7 | (20.0) % |
